Consider 1 substance from publication PMC9998969.

Chains of the proteins cited; added tags and fusions are not shown. Lines headed by an entry give the natural chain unless they say otherwise; changes in a name come on top. Residues count along the entry.
UniProt Q9BSJ8: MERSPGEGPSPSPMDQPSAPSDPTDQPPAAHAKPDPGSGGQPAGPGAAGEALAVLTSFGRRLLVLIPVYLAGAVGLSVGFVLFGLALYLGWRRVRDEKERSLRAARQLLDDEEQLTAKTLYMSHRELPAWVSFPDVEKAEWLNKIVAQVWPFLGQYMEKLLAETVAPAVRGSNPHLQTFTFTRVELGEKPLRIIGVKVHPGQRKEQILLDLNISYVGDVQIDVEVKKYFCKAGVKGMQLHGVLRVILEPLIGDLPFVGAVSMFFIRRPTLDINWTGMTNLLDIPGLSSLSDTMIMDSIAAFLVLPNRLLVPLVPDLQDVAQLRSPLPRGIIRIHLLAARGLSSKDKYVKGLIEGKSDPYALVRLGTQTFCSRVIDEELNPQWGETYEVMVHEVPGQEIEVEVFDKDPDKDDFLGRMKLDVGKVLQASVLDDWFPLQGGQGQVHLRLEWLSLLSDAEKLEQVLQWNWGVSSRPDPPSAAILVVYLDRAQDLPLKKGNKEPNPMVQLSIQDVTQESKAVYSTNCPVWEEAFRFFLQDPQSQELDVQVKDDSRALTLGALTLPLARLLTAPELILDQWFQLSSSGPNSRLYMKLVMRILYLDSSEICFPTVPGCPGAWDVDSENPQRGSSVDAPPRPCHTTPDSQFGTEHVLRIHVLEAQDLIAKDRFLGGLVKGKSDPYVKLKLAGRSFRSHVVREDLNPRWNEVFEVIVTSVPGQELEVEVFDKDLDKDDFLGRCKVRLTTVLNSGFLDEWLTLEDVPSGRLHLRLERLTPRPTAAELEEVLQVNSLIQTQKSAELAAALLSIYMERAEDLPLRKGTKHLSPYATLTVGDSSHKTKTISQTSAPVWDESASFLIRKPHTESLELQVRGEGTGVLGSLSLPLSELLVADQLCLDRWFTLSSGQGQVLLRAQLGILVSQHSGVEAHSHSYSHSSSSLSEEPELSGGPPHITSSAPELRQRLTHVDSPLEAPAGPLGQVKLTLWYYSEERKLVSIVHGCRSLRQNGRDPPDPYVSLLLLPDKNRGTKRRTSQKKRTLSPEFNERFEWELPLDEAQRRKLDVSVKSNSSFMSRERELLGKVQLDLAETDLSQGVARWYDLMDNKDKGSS
UniProt Q9NZJ5, residues 30-1116: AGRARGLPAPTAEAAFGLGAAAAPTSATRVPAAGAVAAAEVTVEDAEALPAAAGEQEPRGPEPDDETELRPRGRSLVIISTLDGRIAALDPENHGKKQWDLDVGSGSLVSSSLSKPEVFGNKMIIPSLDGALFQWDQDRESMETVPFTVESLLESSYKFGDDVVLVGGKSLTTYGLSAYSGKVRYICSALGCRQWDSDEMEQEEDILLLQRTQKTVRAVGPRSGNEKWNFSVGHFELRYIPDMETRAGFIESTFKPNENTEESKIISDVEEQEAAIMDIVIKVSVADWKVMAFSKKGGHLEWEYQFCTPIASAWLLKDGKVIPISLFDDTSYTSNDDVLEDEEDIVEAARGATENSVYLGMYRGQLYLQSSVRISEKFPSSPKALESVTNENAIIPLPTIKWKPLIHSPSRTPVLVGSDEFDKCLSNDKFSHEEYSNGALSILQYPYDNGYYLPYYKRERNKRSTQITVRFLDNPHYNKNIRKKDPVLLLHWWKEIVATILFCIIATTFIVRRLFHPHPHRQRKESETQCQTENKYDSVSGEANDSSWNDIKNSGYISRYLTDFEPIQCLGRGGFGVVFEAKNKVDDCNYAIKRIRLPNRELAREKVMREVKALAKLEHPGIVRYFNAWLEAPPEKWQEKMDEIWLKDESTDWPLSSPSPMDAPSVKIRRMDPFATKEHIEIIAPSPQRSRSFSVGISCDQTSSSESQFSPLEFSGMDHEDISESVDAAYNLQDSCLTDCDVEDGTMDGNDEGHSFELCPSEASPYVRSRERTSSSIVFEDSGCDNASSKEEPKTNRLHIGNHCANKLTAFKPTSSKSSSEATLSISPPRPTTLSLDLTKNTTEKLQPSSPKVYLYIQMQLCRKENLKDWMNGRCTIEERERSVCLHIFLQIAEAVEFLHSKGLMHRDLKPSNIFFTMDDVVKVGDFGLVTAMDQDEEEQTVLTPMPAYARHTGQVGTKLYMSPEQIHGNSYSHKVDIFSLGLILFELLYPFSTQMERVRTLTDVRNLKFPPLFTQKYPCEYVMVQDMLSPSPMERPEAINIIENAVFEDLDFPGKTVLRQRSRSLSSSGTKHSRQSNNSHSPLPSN

The target in test [1] is eGFP-E-Syt1-ΔSMP (UniProt Q9BSJ8). The test can be described thus: co-IP; GFP pull-down with conjugated GFP antibody beads from total lysates of transfected HEK293-T cells; lysis in 1% CHAPS, 100 mM KCl, 50 mM Tris HCl, 150 mM NaCl; 500 ug protein, overnight at 4°C; blot for myc, PERK, GFP, CNX.
Test [2] has the same target. The experiment in a line: co-IP; eGFP pull-down from isolated crude mitochondrial (mito crude) fractions of E-Syt1/2 DKO HeLa cells transiently transfected with eGFP or eGFP-tagged E-Syt1 constructs; blot for endogenous PERK.

No constants are given. Whether binding was seen depends on the method and setting. Binding seen in cells or lysates may run through a third protein. Binding can be weak; no strength is given.

Turning to “endogenous PERK (from UniProt Q9NZJ5 30-1116)”, the binding entry with eGFP-E-Syt1-ΔSMP [1] and in the test with eGFP-E-Syt1-ΔSMP [2] was “binds” throughout.
